# Reference: the supplement of paper PMC8728848
# The other results are listed elsewhere or left out.
# B1: OS9 (Arabidopsis thaliana) (protein)
# chain: MRGSHHHHHHGMASMTGGQQMGRDLYDDDDKSRLQIFPAHLVGTFSRNNREPKYKIEFLPEDSPFHPGDNLESMVMLDKHGNRFLCYLPKEEKATSGWTSSQQNISTVMMETQQLVKLKTPDELLQPLSEKCLFRQEGWWSYEFCHQKYVRQLHVEDENKIVQEFFLGTFDPEATAAFNQTVSDASTDASQRYHSHVYTNGTTCDLTGSPAEVEVRFVCAETRAMVTSITELSTCKYALTVQCPTLCKHPLFQLEKPVSHTIHCNAIPVEEDATRNKEEQAVDESPKMIADS
# What was measured:
# Test in all cases: glycan array binding signal (z-score within array); higher = stronger binding
# Conditions in all cases: glycan notation: IUPAC condensed, linker removed; mutation: R201A
# [1] = target: Fuc(a1-2)Gal
# How it was run: (§1)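 Glycan array binding is given as a within-array Z-score, which can be read as non-binding when negative. The arrays, 3228 of them, came from the Consortium for Functional Glycomics database and were retained only where the protein sequence was available. Z-scores were averaged across arrays of the same protein sequence at different concentrations or buffers and across linkers.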
# [2] = target: Fuc(a1-2)Gal(b1-3)GalNAc
# How it was run: as §1
# [3] = target: Fuc(a1-2)Gal(b1-3)GalNAc(a1-3)[Fuc(a1-2)]Gal(b1-4)Glc
# How it was run: as §1
# [4] = target: Fuc(a1-2)Gal(b1-3)GalNAc(a1-3)[Fuc(a1-2)]Gal(b1-4)GlcNAc
# How it was run: as §1
# [5] = target: Fuc(a1-2)Gal(b1-3)GalNAc(b1-3)Gal
# How it was run: as §1
# [6] = target: Fuc(a1-2)Gal(b1-3)GalNAc(b1-3)Gal(a1-4)Gal(b1-4)Glc
# How it was run: as §1
# [7] = target: Fuc(a1-2)Gal(b1-3)GalNAc(b1-4)[Neu5Ac(a2-3)]Gal(b1-4)Glc
# How it was run: as §1
# [8] = target: Fuc(a1-2)Gal(b1-3)GlcNAc
# How it was run: as §1
# [9] = target: Fuc(a1-2)Gal(b1-3)GlcNAc(b1-2)Man(a1-3)[Fuc(a1-2)Gal(b1-3)GlcNAc(b1-2)Man(a1-6)]Man(b1-4)GlcNAc(b1-4)GlcNAc
# How it was run: as §1
# [10] = target: Fuc(a1-2)Gal(b1-3)GlcNAc(b1-2)Man(a1-3)[Fuc(a1-2)Gal(b1-3)GlcNAc(b1-2)Man(a1-6)]Man(b1-4)GlcNAc(b1-4)[Fuc(a1-6)]GlcNAc
# How it was run: as §1
# [11] = target: Fuc(a1-2)Gal(b1-3)GlcNAc(b1-3)Gal(b1-4)Glc
# How it was run: as §1
# [12] = target: Fuc(a1-2)Gal(b1-3)GlcNAc(b1-3)GalNAc
# How it was run: as §1
# [13] = target: Fuc(a1-2)Gal(b1-3)GlcNAc(b1-3)[Fuc(a1-2)Gal(b1-3)GlcNAc(b1-6)]GalNAc
# How it was run: as §1
# [14] = target: Fuc(a1-2)Gal(b1-3)GlcNAc(b1-3)[Gal(b1-4)GlcNAc(b1-6)]Gal(b1-4)Glc
# How it was run: as §1
# [15] = target: Fuc(a1-2)Gal(b1-3)GlcNAc(b1-3)[Neu5Ac(a2-6)Gal(b1-4)GlcNAc(b1-6)]Gal(b1-4)Glc
# How it was run: as §1
# [16] = target: Fuc(a1-2)Gal(b1-3)GlcNAc6S
# How it was run: as §1
# [17] = target: Fuc(a1-2)Gal(b1-3)[Fuc(a1-4)]GlcNAc
# How it was run: as §1
# [18] = target: Fuc(a1-2)Gal(b1-3)[Fuc(a1-4)]GlcNAc(b1-2)Man(a1-3)[Fuc(a1-2)Gal(b1-3)[Fuc(a1-4)]GlcNAc(b1-2)Man(a1-3)]Man(b1-4)GlcNAc(b1-4)GlcNAc
# How it was run: as §1
# [19] = target: Fuc(a1-2)Gal(b1-3)[Fuc(a1-4)]GlcNAc(b1-2)Man(a1-3)[Fuc(a1-2)Gal(b1-3)[Fuc(a1-4)]GlcNAc(b1-2)Man(a1-6)]Man(b1-4)GlcNAc(b1-4)[Fuc(a1-6)]GlcNAc(b1-4)[Fuc(a1-6)]GlcNAc
# How it was run: as §1
# [20] = target: Fuc(a1-2)Gal(b1-3)[Fuc(a1-4)]GlcNAc(b1-3)[Fuc(a1-3)[Gal(b1-4)]GlcNAc(b1-6)]Gal(b1-4)Glc
# How it was run: as §1
# [21] = target: Fuc(a1-2)Gal(b1-3)[Fuc(a1-4)]GlcNAc(b1-3)[Gal(b1-4)GlcNAc(b1-6)]Gal(b1-4)Glc
# How it was run: as §1
# [22] = target: Fuc(a1-2)Gal(b1-4)Fuc(a1-3)]GlcNAc(b1-2)Man(a1-3)[Fuc(a1-2)Gal(b1-4)[Fuc(a1-3)]GlcNAc(b1-2)Man(a1-6)]Man(b1-4)GlcNAc(b1-4)GlcNAc
# How it was run: as §1
# [23] = target: Fuc(a1-2)Gal(b1-4)Glc
# How it was run: as §1
# [24] = target: Fuc(a1-2)Gal(b1-4)Glc6S
# How it was run: as §1
# [25] = target: Fuc(a1-2)Gal(b1-4)GlcNAc
# How it was run: as §1
# [26] = target: Fuc(a1-2)Gal(b1-4)GlcNAc(b1-2)Man
# How it was run: as §1
# [27] = target: Fuc(a1-2)Gal(b1-4)GlcNAc(b1-2)Man(a1-3)[Fuc(a1-2)Gal(b1-4)GlcNAc(b1-2)Man(a1-6)]Man(b1-4)GlcNAc(b1-4)GlcNAc
# How it was run: as §1
# [28] = target: Fuc(a1-2)Gal(b1-4)GlcNAc(b1-2)Man(a1-3)[Fuc(a1-2)Gal(b1-4)GlcNAc(b1-2)Man(a1-6)]Man(b1-4)GlcNAc(b1-4)[Fuc(a1-6)]GlcNAc
# How it was run: as §1
# [29] = target: Fuc(a1-2)Gal(b1-4)GlcNAc(b1-2)[Fuc(a1-2)Gal(b1-4)GlcNAc(b1-4)]Man(a1-3)[Fuc(a1-2)Gal(b1-4)GlcNAc(b1-2)Man(a1-6)]Man(b1-4)GlcNAc(b1-4)GlcNAc
# How it was run: as §1
# [30] = target: Fuc(a1-2)Gal(b1-4)GlcNAc(b1-3)Gal(b1-4)GlcNAc
# How it was run: as §1
binder,measurement,setting,value
B1,glycan array binding signal (z-score),[1],0.581
same,glycan array binding signal (z-score),[2],-0.494
same,glycan array binding signal (z-score),[3],0.944
same,glycan array binding signal (z-score),[4],0.159
same,glycan array binding signal (z-score),[5],-0.378
same,glycan array binding signal (z-score),[6],-0.131
same,glycan array binding signal (z-score),[7],-0.246
same,glycan array binding signal (z-score),[8],0.928
same,glycan array binding signal (z-score),[9],1.41
same,glycan array binding signal (z-score),[10],0.177
same,glycan array binding signal (z-score),[11],-0.271
same,glycan array binding signal (z-score),[12],-0.284
same,glycan array binding signal (z-score),[13],1.54
same,glycan array binding signal (z-score),[14],0.623
same,glycan array binding signal (z-score),[15],0.511
same,glycan array binding signal (z-score),[16],-0.714
same,glycan array binding signal (z-score),[17],0.017
same,glycan array binding signal (z-score),[18],-0.271
same,glycan array binding signal (z-score),[19],-0.6
same,glycan array binding signal (z-score),[20],0.289
same,glycan array binding signal (z-score),[21],-0.471
same,glycan array binding signal (z-score),[22],1.01
same,glycan array binding signal (z-score),[23],-0.732
same,glycan array binding signal (z-score),[24],0.04
same,glycan array binding signal (z-score),[25],-0.385
same,glycan array binding signal (z-score),[26],-0.418
same,glycan array binding signal (z-score),[27],-0.091
same,glycan array binding signal (z-score),[28],1.92
same,glycan array binding signal (z-score),[29],-0.17
same,glycan array binding signal (z-score),[30],-0.589

# A different layout for part of the listing above.
binder | measurement | setting | value
B1 | glycan array binding signal (z-score) | [19] | -0.6
same | glycan array binding signal (z-score) | [20] | 0.289
